Data from doi:10.1101/2021.10.01.462762 (bioRxiv, 2021).

Columns and labels:
[1] = test system: RNA polymerase holoenzyme; test: EMSA; conditions: RNAP alone; probe letters rebuilt from the primers and the genome
PdeL = target: T1, PdeL (UniProt P21514); test: EMSA; conditions: no Cra
T1 sequence (looked up, limits assumed): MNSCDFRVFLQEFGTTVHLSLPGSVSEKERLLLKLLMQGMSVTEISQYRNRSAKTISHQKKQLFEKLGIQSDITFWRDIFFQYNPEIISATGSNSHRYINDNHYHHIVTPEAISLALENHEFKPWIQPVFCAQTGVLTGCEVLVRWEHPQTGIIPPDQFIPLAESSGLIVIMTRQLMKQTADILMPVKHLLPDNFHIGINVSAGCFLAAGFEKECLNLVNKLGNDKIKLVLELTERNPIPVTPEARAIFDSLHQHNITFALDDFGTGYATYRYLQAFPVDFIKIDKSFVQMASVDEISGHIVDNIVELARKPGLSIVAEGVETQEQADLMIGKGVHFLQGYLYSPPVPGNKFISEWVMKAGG

## TGCTGAATGGATTCAGTCTTAATGAGTGGGTTTTTAAGGGACAGGCATAGAGTAATGATACGTATGCATAACCAACATCTTTACTCATTATGTCATTGAATGTTGACGCTATGTGTTTATGAGGGAGAGGTATTTTCAGTTGATCTGGATTGTTAAATTCATATAATGCGCCTTTGCTC (double strand) [pdeL promoter 4695-4283]
[1]
  binding result: binds more weakly

## TGCTGAATGGATTCAGTCTTAATGAGTGGG (double strand) [CB CDB oligo (4695/4696)]
PdeL
  binding result: no binding

The exact form of at least one protein or probe is not confirmed. For some assays here: No signal at the amounts used counts as a negative. For some assays here: At least one verdict rests on a figure or table, not on a statement of the authors. For some assays here: Tags and fusion partners may be left off the protein sequences shown. For some assays here: Weaker means in comparison with the reference protein, sequence or condition of that experiment.
